# Laboratory results as given in PubChem BioAssay (EPA / NIEHS).
# Chains of the proteins cited; added tags and fusions are not shown. Lines headed by an entry give the natural chain unless they say otherwise; changes in a name come on top.
# UniProt P10275: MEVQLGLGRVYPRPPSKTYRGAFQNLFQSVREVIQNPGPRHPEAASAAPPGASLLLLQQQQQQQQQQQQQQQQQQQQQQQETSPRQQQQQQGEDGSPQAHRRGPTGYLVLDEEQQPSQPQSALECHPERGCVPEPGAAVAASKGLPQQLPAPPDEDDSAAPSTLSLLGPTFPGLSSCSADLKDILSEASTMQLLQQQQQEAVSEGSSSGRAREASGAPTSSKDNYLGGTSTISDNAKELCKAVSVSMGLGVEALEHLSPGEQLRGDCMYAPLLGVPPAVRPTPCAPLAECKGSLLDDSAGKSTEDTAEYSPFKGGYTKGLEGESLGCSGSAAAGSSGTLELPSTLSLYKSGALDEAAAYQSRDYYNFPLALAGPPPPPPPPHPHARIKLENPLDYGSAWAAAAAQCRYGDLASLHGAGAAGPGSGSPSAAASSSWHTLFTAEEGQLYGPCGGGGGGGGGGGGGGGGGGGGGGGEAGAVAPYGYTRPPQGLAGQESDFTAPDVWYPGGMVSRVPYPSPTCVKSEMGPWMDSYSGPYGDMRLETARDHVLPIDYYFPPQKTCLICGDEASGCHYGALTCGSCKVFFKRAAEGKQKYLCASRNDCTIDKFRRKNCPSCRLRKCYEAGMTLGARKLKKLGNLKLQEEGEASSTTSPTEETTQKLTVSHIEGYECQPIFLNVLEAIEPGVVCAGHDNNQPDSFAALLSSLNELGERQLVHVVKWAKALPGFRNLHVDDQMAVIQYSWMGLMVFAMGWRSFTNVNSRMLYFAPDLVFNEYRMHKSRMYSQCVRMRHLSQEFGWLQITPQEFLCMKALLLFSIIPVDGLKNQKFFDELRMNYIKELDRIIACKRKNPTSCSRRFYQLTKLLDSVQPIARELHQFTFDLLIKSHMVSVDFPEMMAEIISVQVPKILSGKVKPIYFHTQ
# Where “and” joins values, the source holds several entries; their conditions need not be identical. Equal values may be shown once. Inconclusive results, whose numbers are uncertain, are shown with a selection of clear calls. Where the call is inconclusive, the potency comes from a doubtful curve fit. Calls of active or inactive are those of the source. The calls were made as follows: active = hit-call score of the fitted dose curve at least 0.9, where 1 is the maximum; inconclusive = response in the unintended direction; inactive = score below 0.9.
# Legend:
# [1] = STM_H9_NormalizedViability: Cytotoxicity Assessment at 120 hours in the Stemina devTOX quickPredict H9 human embryonic stem cell (hESC)-based Assay (AID 2283784)
# Method in brief: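 Chemicals are tested blinded on H9 human embryonic stem cells in the pluripotent state, with medium exchanged daily. After background correction, fluorescence from CellTiter-Fluor is scaled against 0.1% DMSO wells, and decreases are scored.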
# [2] = molecular target: AR (gene 367) (UniProt P10275); assay: ACEA_AR_agonist_80hr: ACEA Biosciences xCELLigence Real-Time Cell Analysis on Androgen Receptor Agonism for Proliferation (AID 2283783);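 also: hits increase impedance growth signal above DMSO baseline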
# Method in brief: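 Proliferation of 22Rv1 prostate cancer cells tracked by electrical impedance, endpoint taken at 80 hours after dosing. Eight-point 1:4 dilutions from 100 uM maximum final, duplicate; testosterone and MG132 as positive controls, assay media as negative.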
# [3] = ACEA_ER_AUC_viability: ACEA Biosciences xCELLigence Real-Time Cell Analysis on Estrogen Receptor Agonism for Viability (AID 2283782);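 also: continuous compound exposure with impedance area under curve over 80 h; hit means loss of impedance signal meaning reduced cell growth or viability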
# Method in brief: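 T47D cells preconditioned in phenol red-free RPMI with charcoal-stripped FBS, then dosed with 8-point 1:4 series from 100 uM (up to 0.5% DMSO). Impedance monitored up to ~80 h; area-under-curve loss versus DMSO taken as viability.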
structure (smiles),measurement,setting,value
CC1(C)C(C=C(Cl)Cl)C1C(=O)OC(C#N)c1ccc(F)c(Oc2ccccc2)c1 (stereo unspecified),AC50,[1],inconclusive: 50 µM
CC(=O)[O][Hg][c]1ccccc1,AC50,[2],inconclusive: 0.0236 µM
same,AC50,[1],active: 0.387 µM
CSC1=N[C@@](C)(c2ccccc2)C(=O)N1Nc1ccccc1,AC50,[3],inconclusive: 50 µM
same,AC50,[1],active: 30.1 µM
O=C1C(Cl)=C(Cl)C(=O)C(Cl)=C1Cl,AC50,[1],inconclusive: 10 µM
Cc1cc(Cl)ccc1OCC(=O)O,AC50,[3],inconclusive: 80.6 nM and inconclusive: 50 µM
same,AC50,[2],inconclusive: 50 µM
same,outcome,[2],inactive
CCC(=O)C(CC(C)N(C)C)(c1ccccc1)c1ccccc1 (stereo unspecified),AC50,[2],inconclusive: 1.2 µM
CC(C)OC(=O)Nc1cccc(Cl)c1,AC50,[1],inconclusive: 89.5 µM
CCN1CCC2(CC1)COc1cc3c(cc12)N(C(=O)c1ccc(-c2ccc(-c4nnc(C)o4)cc2C)cc1)CC3,outcome,[2],inactive
N#Cc1nn(-c2c(Cl)cc(C(F)(F)F)cc2Cl)c(N)c1S(=O)C(F)(F)F (stereo unspecified),AC50,[2],inconclusive: 50.5 µM
CCOP(=S)(OCC)Oc1nc(Cl)c(Cl)cc1Cl,AC50,[2],inconclusive: 50 µM
O=S1OC[C@@H]2[C@H](CO1)[C@]1(Cl)C(Cl)=C(Cl)[C@@]2(Cl)C1(Cl)Cl (stereo partly specified),AC50,[2],inconclusive: 0.362 µM
CCCCCOC(=O)c1ccccc1C(=O)OCCCCC,AC50,[3],inconclusive: 0.724 µM
same,AC50,[1],inconclusive: 50 µM
c1cc[c]([Hg][c]2ccccc2)cc1,outcome,[2],inactive
COc1ccc(C(=CC(=O)N2CCOCC2)c2ccc(Cl)cc2)cc1OC,outcome,[3],inactive
same,AC50,[2],inconclusive: 50 µM
same,AC50,[1],inconclusive: 50 µM
